From PubChem BioAssay AID493014 (National Center for Advancing Translational Sciences (NCATS), 2011)
The list shows a part of the results. These are further read-outs of the screen, such as a control signal, another cell line or another target. No call is given for them. The list favours compounds with an active or inconclusive main result. Words in brackets tell the shape of the fitted curve; partial curves, single points and poor fits give uncertain potencies.

Test: qHTS Assay to Find Inhibitors of Chronic Active B-Cell Receptor Signaling
Settings: ABC-DLBCL IkBa-CBG/CBR reporter, luminescence ratio (green luciferase fused to IkBa over red control in TMD8 lymphoma cells), 4 h
In short: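 Doxycycline induced both beetle luciferases in TMD8 lymphoma cells; IKK-driven degradation limits the IkappaBalpha-fused green signal, while red luminescence normalises for cell number and nonspecific effects. Compounds tested up to 46 uM, 4 hrs.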

[1] = measured here: CBR red luminescence, cell number
[2] = measured here: IkBa-CBG green luminescence

Compound	AC50 [1]	AC50 [2]
CC1(C)Cc2c(ccc3ccccc23)/C(=C/C#N)N1	12.6 µM [rising, partial curve, poor fit]	
CC(=O)Nc1ccc(NC(=O)COC(=O)c2c(-c3ccccc3)noc2C)cc1	18.4 µM [falling, single point]	
CCOC(=O)C1CCCN(C(=O)CN2CCN(Cc3ccc(Cl)cc3)C2=O)C1 (stereo not drawn)	2.06 µM [falling, full curve, poor fit]	
Cc1ccc(S(=O)(=O)NCCCN(C)C)cc1	4.47 µM [rising, single point]	
CCSc1cc(N2CC(C)OC(C)C2)nc(-c2ccccc2Cl)n1 (stereo not drawn)	6.51 µM [rising, partial curve]	
O=C1c2ccccc2NC(c2ccc(-c3ccc(C(F)(F)F)cc3)o2)N1O (stereo not drawn)	20.6 µM [falling, partial curve, poor fit]	
CC(C)N1CCc2c(sc(NC(=O)c3cc4cc([N+](=O)[O-])ccc4s3)c2C(N)=O)C1	22.4 µM [falling, single point]	
CCc1ccc(CN(C)C(=O)CCc2nnc(-c3ccc(-c4ccccc4)cc3)o2)nc1	14.1 µM [falling, single point]	
Cc1cc(C)nc(NS(=O)(=O)c2ccc(NC(=O)CN3C(=O)S/C(=C\c4ccccc4)C3=O)cc2)n1	23.1 µM [falling, single point]	20.6 µM [falling, partial curve, poor fit]
O=C(COc1ccc(/C=N/NC(=O)C(=O)N2CCCCC2)cc1)Nc1ccccc1Cl	5.62 µM [falling, partial curve, poor fit]	
O=c1/c(=C/c2ccccn2)sc2nc3ccccc3n12	0.316 µM [rising, full curve, poor fit]	
CCCCn1c(N2CCC(Cc3ccccc3)CC2)nc2c1c(=O)[nH]c(=O)n2C	16.4 µM [falling, single point]	
S=c1[nH]nc(-c2ccccc2)o1	35.5 µM [falling, single point]	
O=C(CN1C(=O)c2cccc3cccc1c23)NCc1cccnc1	0.116 µM [falling, full curve, poor fit]	
Cc1ccc(N=C2NC(=O)CS2)c(C)c1	5.8 µM [rising, partial curve, poor fit]	
CCOC(=O)c1ccc(NC(=O)CN2CCc3ccccc3C2)cc1	13 µM [rising, partial curve, poor fit]	
CCOC(=O)/C(=N\Nc1ncnc2ccccc12)c1ccc(OC)cc1	14.1 µM [falling, single point]	
CC1=C(CC(=O)c2ccccc2)C(=O)c2ccccc2C1=O	35.5 µM [falling, single point]	
NC(=O)c1ccc(NC(=O)CCc2nc3ccccc3s2)cc1	35.5 µM [falling, partial curve, poor fit]	
O=C1c2ccccc2NC(c2ccc(-c3ccccc3F)o2)N1O (stereo not drawn)	18.4 µM [falling, partial curve]	
Cc1cc(-c2ccc(N3CCOCC3)cc2)nc2ccccc12	2.91 µM [rising, full curve]	

Compound	AC50 [1]	AC50 [2]
O=c1oc2ccccc2c2c1C1O[C@](c3ccsc3)(Cc3ccccc31)O2	0.355 µM [falling, full curve, poor fit]	
Cc1noc(C(=O)Nc2cccc(O)c2)c1Cl	3.98 µM [falling, partial curve, poor fit]	
CCOC(=O)C1CCN(S(=O)(=O)c2ccc3c4c(cccc24)C(=O)N3CC)CC1	6.51 µM [rising, single point]	1.64 µM [falling, partial curve, poor fit]
C=CCNC(=S)N1CCN(CCN=CC2=C(O)CC(c3ccc(Cl)cc3)CC2=O)CC1 (stereo not drawn)	3.16 µM [falling, partial curve, poor fit]	
O=C(Nc1cc(=O)[nH]c2ncnn12)c1ccccc1Cl	35.5 µM [falling, single point]	
O=C(/C=C/c1ccc(F)cc1)NC(=S)N1CCCCC1c1cccnc1 (stereo not drawn)	6.31 µM [rising, single point]	
CC1=CC(=NOC(=O)c2cccc([N+](=O)[O-])c2)C=C(C)C1=O	7.31 µM [falling, partial curve]	
COc1cccc(C2CC(=O)Nc3n[nH]c(-c4ccccc4)c32)c1OC (stereo not drawn)	1.78 µM [rising, partial curve, poor fit]	
CC(=O)c1cccc(Nc2ncnc3ccc(Br)cc23)c1	10 µM [falling, partial curve, poor fit]	
O=CN1CCN(c2ncnc3c2nnn3Cc2c(F)cccc2Cl)CC1	11.2 µM [rising, partial curve, poor fit]	
Cc1nnc(N/N=C/c2ccc(Br)cc2)n1N	4.47 µM [rising, single point]	
Cc1cccc(NC(=O)COc2nsnc2N2CCOCC2)c1	17.8 µM [falling, single point]	
CCCC(=O)N/C(N)=N/c1nc(C)c2ccccc2n1	2 µM [falling, full curve]	
N#Cc1cnc(N)c(Br)c1	11.2 µM [falling, partial curve, poor fit]	
Cc1ccc(CC2CC(=O)N(C(Cc3ccccc3)C(=O)O)C2=O)cc1 (stereo not drawn)	1 µM [rising, full curve, poor fit]	
CC(CNC(=S)Nc1cc(F)cc(F)c1)CSc1ccc(Cl)cc1 (stereo not drawn)	35.5 µM [falling, single point]	
Cc1ccccc1CN(C)Cc1cc(=O)oc2c(C)c(C)ccc12	6.31 µM [rising, full curve, poor fit]	
Cc1ccc(NC(=O)NNC(=O)c2snnc2C)cc1	15.8 µM [falling, single point]	
CCOc1ccccc1NC(=O)C(NCCc1ccc(OC)cc1)c1ccccc1 (stereo not drawn)	2.82 µM [falling, single point]	
CCOc1ccc(N(CC(=O)N/N=C/c2cc([N+](=O)[O-])ccc2Cl)S(C)(=O)=O)cc1	0.0058 µM [falling, full curve, poor fit]	

Gathered by group: the entries above containing a thiophene ring, fused or not
Compound	AC50 [1]	AC50 [2]
CC(C)N1CCc2c(sc(NC(=O)c3cc4cc([N+](=O)[O-])ccc4s3)c2C(N)=O)C1	22.4 µM [falling, single point]	
O=c1oc2ccccc2c2c1C1O[C@](c3ccsc3)(Cc3ccccc31)O2	0.355 µM [falling, full curve, poor fit]	
